In patent US20180037903A1, “METHODS AND MEANS FOR INCREASING STRESS TOLERANCE AND BIOMASS IN PLANTS” (THE UNIVERSITY COURT OF THE UNIVERSITY OF GLASGOW, priority 2013, published 2018):
Results are given in words; binding and its absence hold for the method and conditions named. In cells and extracts the contact can be indirect. Some binding calls cover weakened binding; strength is not graded here. Sequences can lack the tags named with a protein.

T1: recombinant GST-HDA6 (Arabidopsis thaliana) (UniProt Q9FML2)
T1 sequence (looked up): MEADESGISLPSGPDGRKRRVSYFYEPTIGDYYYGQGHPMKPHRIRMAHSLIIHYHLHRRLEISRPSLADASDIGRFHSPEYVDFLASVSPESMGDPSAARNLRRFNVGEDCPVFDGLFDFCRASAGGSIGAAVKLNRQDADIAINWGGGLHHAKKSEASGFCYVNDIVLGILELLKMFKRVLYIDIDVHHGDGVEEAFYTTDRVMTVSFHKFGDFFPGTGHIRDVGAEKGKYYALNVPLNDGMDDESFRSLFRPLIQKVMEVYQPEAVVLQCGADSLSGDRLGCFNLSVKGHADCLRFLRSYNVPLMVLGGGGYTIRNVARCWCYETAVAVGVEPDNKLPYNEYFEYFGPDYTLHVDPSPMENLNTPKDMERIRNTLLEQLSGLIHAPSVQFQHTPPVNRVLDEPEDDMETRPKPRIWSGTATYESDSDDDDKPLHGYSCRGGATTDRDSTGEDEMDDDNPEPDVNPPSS

T2: recombinant GST-HDA19 (Arabidopsis thaliana) (UniProt O22446)
T2 sequence (looked up): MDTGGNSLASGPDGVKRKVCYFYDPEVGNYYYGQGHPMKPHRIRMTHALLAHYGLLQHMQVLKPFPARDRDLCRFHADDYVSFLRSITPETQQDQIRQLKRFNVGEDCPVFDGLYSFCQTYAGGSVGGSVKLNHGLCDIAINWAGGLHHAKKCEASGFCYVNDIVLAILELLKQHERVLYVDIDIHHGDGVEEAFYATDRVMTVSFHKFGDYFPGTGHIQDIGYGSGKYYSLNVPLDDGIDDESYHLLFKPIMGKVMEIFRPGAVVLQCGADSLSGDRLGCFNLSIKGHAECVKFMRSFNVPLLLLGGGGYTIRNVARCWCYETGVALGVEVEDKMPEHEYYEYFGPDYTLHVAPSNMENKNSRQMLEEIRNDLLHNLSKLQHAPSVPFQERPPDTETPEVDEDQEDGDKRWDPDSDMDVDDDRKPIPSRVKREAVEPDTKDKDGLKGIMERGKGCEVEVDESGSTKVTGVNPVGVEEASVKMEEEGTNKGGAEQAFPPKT


What was measured:
[1] = target: T1, recombinant GST-HDA6 (Arabidopsis thaliana); test: GST pull-down from nuclei-enriched plant protein samples, anti-HDC1 Western blot
[2] = target: T2, recombinant GST-HDA19 (Arabidopsis thaliana); test: as above
[3] = target: T1, recombinant GST-HDA6 (Arabidopsis thaliana); test: in-vitro GST pull-down of recombinant HDC1-His with GST-HDA6, anti-His Western blot
[4] = target: T2, recombinant GST-HDA19 (Arabidopsis thaliana); test: in-vitro GST pull-down of recombinant HDC1-His with GST-HDA19, anti-His Western blot

| binding [1] | binding [2] | binding [3] | binding [4] | Binder |
| --- | --- | --- | --- | --- |
| binds | binds |  |  | native HDC1 from nuclei-enriched protein samples of A. thaliana wildtype plants (protein) MSGVPKRSHEEGVTHPSSSSSVAKYPHEDSGSYPKSPHQPVTPPPAQVHHNHQQPHQHPQSQSQSQPQPHLQALPHPHSHSHSHSPLAAAASASAPYEVESRTVVKVARSEPRDGERRSPLPLVYRSPSLPTTVSSSDPHLTHAPVPMEPRDGAKDGREIRVESRENRSDGREIYGETKREIQGPKGDRDVKFERSVDDFSGKGNTGSYTRNDGREMYGETKREIQGPKSDRDAKFERPGDDFSGKSNAGSYTRDTKFDRENQNYNEQKGEIKMEKEGHAHLAWKEQKDYHRGKRVAEGSTANVDPWVVSRGNPQGPTEVGPKDLSAPVEGSHLEGRETVGENKVDAKNEDRFKEKDKKRKELKHREWGDRDKDRNDRRVSVLVGSVMSEPKEIGREERESDRWERERMEQKDRERNKEKDKDHIKREPRTGAEKEISQNEKELGEASAKPSEQEYVAPEQKKQNEPDNCEKDERETKEKRRERDGDSEAERAEKRSRISEKESEDGCLEGEGATEREKDAFNYGVQQRKRALRPRGSPQTTNRDNVRSRSQDNEGVQGKSEVSIVVYKVGECMQELIKLWKEYDLSHPDKSGDFANNGPTLEVRIPAEHVTATNRQVRGGQLWGTDIYTDDSDLVAVLMHTGYCRPTASPPPPTMQELRTTIRVLPSQDYYTSKLRNNVRSRAWGAGIGCSYRVERCYILKKGGGTIELEPSLTHSSTVEPTLAPMAVERSMTTRAAASNALRQQRFVREVTIQYNLCNEPWIKYSISIVADKGLKKPLFTSARLKKGEVLYLETHSCRYELCFAGEKTIKAIQASQQQSSHEAMETDNNNNKSQNHLTNGDKTDSDNSLIDVFRWSRCKKPLPQKLMRSIGFPLPADHIEVLEENLDWEDVQWSQTGVWIAGKEYTLARVHFLSPN |
|  |  | binds | binds | recombinant HDC1-His (protein, not shown: small tags and cut ends) MSGVPKRSHEEGVTHPSSSSSVAKYPHEDSGSYPKSPHQPVTPPPAQVHHNHQQPHQHPQSQSQSQPQPHLQALPHPHSHSHSHSPLAAAASASAPYEVESRTVVKVARSEPRDGERRSPLPLVYRSPSLPTTVSSSDPHLTHAPVPMEPRDGAKDGREIRVESRENRSDGREIYGETKREIQGPKGDRDVKFERSVDDFSGKGNTGSYTRNDGREMYGETKREIQGPKSDRDAKFERPGDDFSGKSNAGSYTRDTKFDRENQNYNEQKGEIKMEKEGHAHLAWKEQKDYHRGKRVAEGSTANVDPWVVSRGNPQGPTEVGPKDLSAPVEGSHLEGRETVGENKVDAKNEDRFKEKDKKRKELKHREWGDRDKDRNDRRVSVLVGSVMSEPKEIGREERESDRWERERMEQKDRERNKEKDKDHIKREPRTGAEKEISQNEKELGEASAKPSEQEYVAPEQKKQNEPDNCEKDERETKEKRRERDGDSEAERAEKRSRISEKESEDGCLEGEGATEREKDAFNYGVQQRKRALRPRGSPQTTNRDNVRSRSQDNEGVQGKSEVSIVVYKVGECMQELIKLWKEYDLSHPDKSGDFANNGPTLEVRIPAEHVTATNRQVRGGQLWGTDIYTDDSDLVAVLMHTGYCRPTASPPPPTMQELRTTIRVLPSQDYYTSKLRNNVRSRAWGAGIGCSYRVERCYILKKGGGTIELEPSLTHSSTVEPTLAPMAVERSMTTRAAASNALRQQRFVREVTIQYNLCNEPWIKYSISIVADKGLKKPLFTSARLKKGEVLYLETHSCRYELCFAGEKTIKAIQASQQQSSHEAMETDNNNNKSQNHLTNGDKTDSDNSLIDVFRWSRCKKPLPQKLMRSIGFPLPADHIEVLEENLDWEDVQWSQTGVWIAGKEYTLARVHFLSPN |
